{
  "source": "paper doi:10.1101/2020.11.12.377127",
  "experiment_in_all_cases": "co-IP",
  "key": {"[1]": {"target": "Halo-V5-tagged WT YTHDF2 (human) (UniProt Q9Y5A9)"}, "[2]": {"target": "T1, Halo-V5-tagged YTHDF2 fragment F1 (aa 1-166) (human) (UniProt Q9Y5A9)", "T1 sequence": "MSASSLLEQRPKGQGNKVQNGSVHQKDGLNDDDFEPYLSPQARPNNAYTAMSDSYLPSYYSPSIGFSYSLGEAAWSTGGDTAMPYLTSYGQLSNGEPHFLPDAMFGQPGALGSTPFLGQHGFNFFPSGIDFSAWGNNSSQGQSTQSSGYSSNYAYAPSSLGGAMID"}, "[3]": {"target": "T2, Halo-V5-tagged YTHDF2 fragment F2 (aa 1-367) (human) (UniProt Q9Y5A9)", "T2 sequence": "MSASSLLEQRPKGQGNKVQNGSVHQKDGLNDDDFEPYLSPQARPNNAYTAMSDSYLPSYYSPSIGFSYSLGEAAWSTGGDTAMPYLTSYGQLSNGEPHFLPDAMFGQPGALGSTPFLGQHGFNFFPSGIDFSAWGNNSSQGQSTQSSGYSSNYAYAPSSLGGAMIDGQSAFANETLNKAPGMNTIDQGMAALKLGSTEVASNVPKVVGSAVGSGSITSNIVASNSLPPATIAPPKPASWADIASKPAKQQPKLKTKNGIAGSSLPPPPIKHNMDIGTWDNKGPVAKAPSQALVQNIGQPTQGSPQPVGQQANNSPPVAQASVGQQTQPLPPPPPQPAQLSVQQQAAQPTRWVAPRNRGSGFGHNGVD"}, "[4]": {"target": "T3, Halo-V5-tagged YTHDF2 fragment F3 (aa 167-367) (human) (UniProt Q9Y5A9)", "T3 sequence": "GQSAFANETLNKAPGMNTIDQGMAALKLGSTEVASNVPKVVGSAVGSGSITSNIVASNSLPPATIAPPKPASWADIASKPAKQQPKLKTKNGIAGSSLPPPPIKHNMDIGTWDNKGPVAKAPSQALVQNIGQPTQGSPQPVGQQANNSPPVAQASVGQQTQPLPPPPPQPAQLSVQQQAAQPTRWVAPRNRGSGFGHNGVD"}, "[5]": {"target": "T4, Halo-V5-tagged YTHDF2 fragment F4 (aa 167-579) (human) (UniProt Q9Y5A9)", "T4 sequence": "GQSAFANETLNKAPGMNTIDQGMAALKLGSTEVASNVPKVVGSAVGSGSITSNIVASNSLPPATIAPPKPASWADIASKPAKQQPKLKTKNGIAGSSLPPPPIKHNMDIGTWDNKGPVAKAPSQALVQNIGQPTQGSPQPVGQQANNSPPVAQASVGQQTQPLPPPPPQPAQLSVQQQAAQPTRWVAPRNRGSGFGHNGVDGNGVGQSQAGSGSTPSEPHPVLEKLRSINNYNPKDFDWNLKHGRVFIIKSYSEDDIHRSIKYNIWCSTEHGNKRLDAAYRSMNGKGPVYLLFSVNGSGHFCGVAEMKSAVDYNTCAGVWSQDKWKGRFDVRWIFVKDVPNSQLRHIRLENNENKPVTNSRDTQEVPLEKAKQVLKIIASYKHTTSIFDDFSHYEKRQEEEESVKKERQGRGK"}, "[6]": {"target": "T5, Halo-V5-tagged YTHDF2 fragment F5 (aa 368-579) (human) (UniProt Q9Y5A9)", "T5 sequence": "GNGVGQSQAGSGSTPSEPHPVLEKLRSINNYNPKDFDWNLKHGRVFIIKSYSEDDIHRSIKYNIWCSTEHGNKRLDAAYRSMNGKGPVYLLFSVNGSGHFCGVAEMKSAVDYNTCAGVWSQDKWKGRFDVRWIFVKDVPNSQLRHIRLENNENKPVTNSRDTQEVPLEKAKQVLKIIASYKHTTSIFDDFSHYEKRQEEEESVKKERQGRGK"}},
  "note": "No constants are given. Whether binding was seen depends on the method and setting. Binding seen in cells or lysates may run through a third protein. For part of these data: Binding can be weak; no strength is given. For part of these data: Sequences can lack the tags named with a protein.",
  "data": [
    {"substance": "HA-tagged CNOT1 SH domain (from UniProt A5YKK6) (domain or fragment)", "values": [
      {"measurement": "binding", "setting": "[1]", "value": "binds"},
      {"measurement": "binding", "setting": "[2]", "value": "no binding"},
      {"measurement": "binding", "setting": "[3]", "value": "binds"},
      {"measurement": "binding", "setting": "[4]", "value": "no binding"},
      {"measurement": "binding", "setting": "[5]", "value": "binds"},
      {"measurement": "binding", "setting": "[6]", "value": "binds"}
    ]}
  ]
}
